Results taken from ChEMBL document CHEMBL4316593 (Eur J Med Chem, 2019).
The source gives many values for each of these; only a part stands here.

How the values were obtained:
Type in all cases: cell-based
Conditions in all cases: U-87MG ATCC
[1] = Inhibition of RTK/PI3K/AKT/mTOR signaling in human U87 cells assessed as down regulation of EIF4A3 gene expression at cytotoxic IC50 measured after 48 hrs relative to control
[2] = Inhibition of RTK/PI3K/AKT/mTOR signaling in human U87 cells assessed as down regulation of SAMD4A gene expression at cytotoxic IC50 measured after 48 hrs relative to control
[3] = Inhibition of RTK/PI3K/AKT/mTOR signaling in human U87 cells assessed as down regulation of AP1B1 gene expression at cytotoxic IC50 measured after 48 hrs relative to control
[4] = Inhibition of RTK/PI3K/AKT/mTOR signaling in human U87 cells assessed as down regulation of C7orf26 gene expression at cytotoxic IC50 measured after 48 hrs relative to control
[5] = Inhibition of RTK/PI3K/AKT/mTOR signaling in human U87 cells assessed as down regulation of CLCN5 gene expression at cytotoxic IC50 measured after 48 hrs relative to control
[6] = Inhibition of RTK/PI3K/AKT/mTOR signaling in human U87 cells assessed as down regulation of ATG4A gene expression at cytotoxic IC50 measured after 48 hrs relative to control
[7] = Inhibition of RTK/PI3K/AKT/mTOR signaling in human U87 cells assessed as down regulation of ZNF766 gene expression at cytotoxic IC50 measured after 48 hrs relative to control
[8] = Inhibition of RTK/PI3K/AKT/mTOR signaling in human U87 cells assessed as down regulation of VRK3 gene expression at cytotoxic IC50 measured after 48 hrs relative to control
[9] = Inhibition of RTK/PI3K/AKT/mTOR signaling in human U87 cells assessed as down regulation of ABCD3 gene expression at cytotoxic IC50 measured after 48 hrs relative to control
[10] = Inhibition of RTK/PI3K/AKT/mTOR signaling in human U87 cells assessed as down regulation of ARPC5 gene expression at cytotoxic IC50 measured after 48 hrs relative to control
[11] = Inhibition of RTK/PI3K/AKT/mTOR signaling in human U87 cells assessed as down regulation of GBF1 gene expression at cytotoxic IC50 measured after 48 hrs relative to control
[12] = Inhibition of RTK/PI3K/AKT/mTOR signaling in human U87 cells assessed as down regulation of LRRC8B gene expression at cytotoxic IC50 measured after 48 hrs relative to control
[13] = Inhibition of RTK/PI3K/AKT/mTOR signaling in human U87 cells assessed as down regulation of FANCI gene expression at cytotoxic IC50 measured after 48 hrs relative to control
[14] = Inhibition of RTK/PI3K/AKT/mTOR signaling in human U87 cells assessed as down regulation of CSTB gene expression at cytotoxic IC50 measured after 48 hrs relative to control
[15] = Inhibition of RTK/PI3K/AKT/mTOR signaling in human U87 cells assessed as down regulation of CBL gene expression at cytotoxic IC50 measured after 48 hrs relative to control
[16] = Inhibition of RTK/PI3K/AKT/mTOR signaling in human U87 cells assessed as down regulation of ERLIN2 gene expression at cytotoxic IC50 measured after 48 hrs relative to control
[17] = Inhibition of RTK/PI3K/AKT/mTOR signaling in human U87 cells assessed as down regulation of FSCN1 gene expression at cytotoxic IC50 measured after 48 hrs relative to control
[18] = Inhibition of RTK/PI3K/AKT/mTOR signaling in human U87 cells assessed as up regulation of GFY gene expression at cytotoxic IC50 measured after 48 hrs relative to control
[19] = Inhibition of RTK/PI3K/AKT/mTOR signaling in human U87 cells assessed as up regulation of WD repeat domain 54 gene expression at cytotoxic IC50 measured after 48 hrs relative to control
[20] = Inhibition of RTK/PI3K/AKT/mTOR signaling in human U87 cells assessed as up regulation of RNA polymerase III subunit H gene expression at cytotoxic IC50 measured after 48 hrs relative to control
[21] = Inhibition of RTK/PI3K/AKT/mTOR signaling in human U87 cells assessed as up regulation of coiled-coil domain containing 57 gene expression at cytotoxic IC50 measured after 48 hrs relative to control
[22] = Inhibition of RTK/PI3K/AKT/mTOR signaling in human U87 cells assessed as up regulation of progestin and adipoQ receptor family member 8 gene expression at cytotoxic IC50 measured after 48 hrs relative to control
[23] = Inhibition of RTK/PI3K/AKT/mTOR signaling in human U87 cells assessed as up regulation of DNA polymerase iota gene expression at cytotoxic IC50 measured after 48 hrs relative to control
[24] = Inhibition of RTK/PI3K/AKT/mTOR signaling in human U87 cells assessed as up regulation of cartilage intermediate layer protein 2 gene expression at cytotoxic IC50 measured after 48 hrs relative to control
[25] = Inhibition of RTK/PI3K/AKT/mTOR signaling in human U87 cells assessed as up regulation of calcium voltage-gated channel auxiliary subunit beta 3 gene expression at cytotoxic IC50 measured after 48 hrs relative to control
[26] = Inhibition of RTK/PI3K/AKT/mTOR signaling in human U87 cells assessed as up regulation of MMS19 homolog, cytosolic iron-sulfur assembly component gene expression at cytotoxic IC50 measured after 48 hrs relative to control
[27] = Inhibition of RTK/PI3K/AKT/mTOR signaling in human U87 cells assessed as up regulation of ZFP36 ring finger protein like 2 gene expression at cytotoxic IC50 measured after 48 hrs relative to control
[28] = Inhibition of RTK/PI3K/AKT/mTOR signaling in human U87 cells assessed as up regulation of SCARB1 gene expression at cytotoxic IC50 measured after 48 hrs relative to control
[29] = Inhibition of RTK/PI3K/AKT/mTOR signaling in human U87 cells assessed as up regulation of EIF2A gene expression at cytotoxic IC50 measured after 48 hrs relative to control
[30] = Inhibition of RTK/PI3K/AKT/mTOR signaling in human U87 cells assessed as up regulation of EPCAM gene expression at cytotoxic IC50 measured after 48 hrs relative to control
[31] = Inhibition of RTK/PI3K/AKT/mTOR signaling in human U87 cells assessed as up regulation of CLSTN1 gene expression at cytotoxic IC50 measured after 48 hrs relative to control
[32] = Inhibition of RTK/PI3K/AKT/mTOR signaling in human U87 cells assessed as up regulation of RPL11 gene expression at cytotoxic IC50 measured after 48 hrs relative to control

Molecule `CC(=O)C(=NNc1ccccc1C#N)C(C)=O` has a log2FC [1] of -0.453, a log2FC [2] of -1.58 and a log2FC [3] of -1.07. The log2FC [4] was -1.07, the log2FC [5] was -1.02 and the log2FC [6] was -0.953. It also gave a log2FC [7] of -0.923, a log2FC [8] of -0.891 and a log2FC [9] of -0.845. The log2FC [10] was -0.836, the log2FC [11] was -0.76 and the log2FC [12] was -0.743. The log2FC [13] was -0.72, the log2FC [14] was -0.661 and the log2FC [15] was -0.594. For the same molecule, the log2FC [16] was -0.558, the log2FC [17] was -0.436 and the log2FC [18] was 2.8. The log2FC [19] was 1.48, the log2FC [20] was 1.09 and the log2FC [21] was 1.01. The log2FC [22] was 0.905, the log2FC [23] was 0.875 and the log2FC [24] was 0.861. For the same molecule, the log2FC [25] was 0.856, the log2FC [26] was 0.745 and the log2FC [27] was 0.647. The log2FC [28] was 0.643, the log2FC [29] was 0.554 and the log2FC [30] was 0.454. For the same molecule, the log2FC [31] was 0.429 and the log2FC [32] was 0.326.
